# Substitutions are numbered along the chain they refer to. The list shows a part of the results. For some of these results: At the low end of the ranking the order means little.
# Assays:
# Conditions in all cases: yeast three-hybrid, YBZ-1, SC-Leu-His + 0.5 mM 3-AT, 4 days
# [1] = target: T1, PUM1 PUF domain R4-AGY N971A + H972G + Q975Y (UniProt Q14671)
# T1 sequence: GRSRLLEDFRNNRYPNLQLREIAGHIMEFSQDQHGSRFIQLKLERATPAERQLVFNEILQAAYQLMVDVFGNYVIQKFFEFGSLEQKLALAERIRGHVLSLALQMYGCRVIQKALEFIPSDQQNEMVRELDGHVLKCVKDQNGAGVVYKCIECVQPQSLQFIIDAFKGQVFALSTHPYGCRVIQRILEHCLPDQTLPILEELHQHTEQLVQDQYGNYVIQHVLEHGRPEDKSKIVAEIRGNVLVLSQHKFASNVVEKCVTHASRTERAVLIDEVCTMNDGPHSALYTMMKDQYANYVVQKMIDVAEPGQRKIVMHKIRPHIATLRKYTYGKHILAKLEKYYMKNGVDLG
# [2] = target: T2, PUM1 PUF domain R4-ALC N971A + H972L + Q975C (UniProt Q14671)
# T2 sequence: T1 sequence with G145L, Y148C
# [3] = target: T3, PUM1 PUF domain R4-ALG N971A + H972L + Q975G (Homo sapiens) (UniProt Q14671)
# T3 sequence: T1 sequence with G145L, Y148G
# [4] = target: T4, PUM1 PUF domain R4-ALS N971A + H972L + Q975S (Homo sapiens) (UniProt Q14671)
# T4 sequence: T1 sequence with G145L, Y148S
# [5] = target: T5, PUM1 PUF domain R4-ALY N971A + H972L + Q975Y (UniProt Q14671)
# T5 sequence: T1 sequence with G145L
# [6] = target: T6, PUM1 PUF domain R4-AQS N971A + H972Q + Q975S (Homo sapiens) (UniProt Q14671)
# T6 sequence: T1 sequence with G145Q, Y148S
# [7] = target: T7, PUM1 PUF domain R4-ARR N971A + H972R + Q975R (Homo sapiens) (UniProt Q14671)
# T7 sequence: T1 sequence with G145R, Y148R
# [8] = target: T8, PUM1 PUF domain R4-ARV N971A + H972R + Q975V (UniProt Q14671)
# T8 sequence: T1 sequence with G145R, Y148V
# [9] = target: T9, PUM1 PUF domain R4-CGC N971C + H972G + Q975C (Homo sapiens) (UniProt Q14671)
# T9 sequence: T1 sequence with A144C, Y148C
# [10] = target: T10, PUM1 PUF domain R4-CRA N971C + H972R + Q975A (Homo sapiens) (UniProt Q14671)
# T10 sequence: T1 sequence with A144C, G145R, Y148A
# [11] = target: T11, PUM1 PUF domain R4-CRL N971C + H972R + Q975L (Homo sapiens) (UniProt Q14671)
# T11 sequence: T1 sequence with A144C, G145R, Y148L
# [12] = target: T12, PUM1 PUF domain R4-CRR N971C + H972R + Q975R (Homo sapiens) (UniProt Q14671)
# T12 sequence: T1 sequence with A144C, G145R, Y148R
# [13] = target: T13, PUM1 PUF domain R4-DFG N971D + H972F + Q975G (Homo sapiens) (UniProt Q14671)
# T13 sequence: T1 sequence with A144D, G145F, Y148G
# [14] = target: T14, PUM1 PUF domain R4-DHG N971D + Q975G (Homo sapiens) (UniProt Q14671)
# T14 sequence: T1 sequence with A144D, G145H, Y148G
# [15] = target: T15, PUM1 PUF domain R4-DRC N971D + H972R + Q975C (Homo sapiens) (UniProt Q14671)
# T15 sequence: T1 sequence with A144D, G145R, Y148C
# [16] = target: T16, PUM1 PUF domain R4-DRG N971D + H972R + Q975G (UniProt Q14671)
# T16 sequence: T1 sequence with A144D, G145R, Y148G
# [17] = target: T17, PUM1 PUF domain R4-EHL N971E + Q975L (Homo sapiens) (UniProt Q14671)
# T17 sequence: T1 sequence with A144E, G145H, Y148L
# [18] = target: T18, PUM1 PUF domain R4-GPY N971G + H972P + Q975Y (Homo sapiens) (UniProt Q14671)
# T18 sequence: T1 sequence with A144G, G145P
# [19] = target: T19, PUM1 PUF domain R4-GQR N971G + H972Q + Q975R (Homo sapiens) (UniProt Q14671)
# T19 sequence: T1 sequence with A144G, G145Q, Y148R
# [20] = target: T20, PUM1 PUF domain R4-GQS N971G + H972Q + Q975S (Homo sapiens) (UniProt Q14671)
# T20 sequence: T1 sequence with A144G, G145Q, Y148S
# [21] = target: T21, PUM1 PUF domain R4-GRN N971G + H972R + Q975N (Homo sapiens) (UniProt Q14671)
# T21 sequence: T1 sequence with A144G, G145R, Y148N
# [22] = target: T22, PUM1 PUF domain R4-GRR N971G + H972R + Q975R (Homo sapiens) (UniProt Q14671)
# T22 sequence: T1 sequence with A144G, G145R, Y148R
# [23] = target: T23, PUM1 PUF domain R4-LGC N971L + H972G + Q975C (Homo sapiens) (UniProt Q14671)
# T23 sequence: T1 sequence with A144L, Y148C
# [24] = target: T24, PUM1 PUF domain R4-LGL N971L + H972G + Q975L (UniProt Q14671)
# T24 sequence: T1 sequence with A144L, Y148L
# [25] = target: T25, PUM1 PUF domain R4-LGM N971L + H972G + Q975M (Homo sapiens) (UniProt Q14671)
# T25 sequence: T1 sequence with A144L, Y148M
# [26] = target: T26, PUM1 PUF domain R4-LRC N971L + H972R + Q975C (Homo sapiens) (UniProt Q14671)
# T26 sequence: T1 sequence with A144L, G145R, Y148C
# [27] = target: T27, PUM1 PUF domain R4-MLC N971M + H972L + Q975C (UniProt Q14671)
# T27 sequence: T1 sequence with A144M, G145L, Y148C
# [28] = target: T28, PUM1 PUF domain R4-PRC N971P + H972R + Q975C (UniProt Q14671)
# T28 sequence: T1 sequence with A144P, G145R, Y148C
# [29] = target: T29, PUM1 PUF domain R4-PRQ N971P + H972R (Homo sapiens) (UniProt Q14671)
# T29 sequence: T1 sequence with A144P, G145R, Y148Q
# [30] = target: T30, PUM1 PUF domain R4-PTC N971P + H972T + Q975C (UniProt Q14671)
# T30 sequence: T1 sequence with A144P, G145T, Y148C
# [31] = target: T31, PUM1 PUF domain R4-QRG N971Q + H972R + Q975G (Homo sapiens) (UniProt Q14671)
# T31 sequence: T1 sequence with A144Q, G145R, Y148G
sequence,measurement,setting,value
GGCUAGAACUAGUGGAUCCCCCGGCGCCCGGCGGCUCGAGCCCGGGUAAGUGUAUAUAGUCUGCAUGCCGCCGGGCGCCAUGCCUGCAGGUCGACUCUAGAAAACAUG,binding signal (log2 enrichment (interaction score)),[1],< -6.72
same,binding signal (log2 enrichment (interaction score)),[2],< -6.36
same,binding signal (log2 enrichment (interaction score)),[3],-4.21
same,binding signal (log2 enrichment (interaction score)),[4],-5.4
same,binding signal (log2 enrichment (interaction score)),[5],< -5.87
same,binding signal (log2 enrichment (interaction score)),[6],-1.28
same,binding signal (log2 enrichment (interaction score)),[7],-0.49
same,binding signal (log2 enrichment (interaction score)),[8],< -4.84
same,binding signal (log2 enrichment (interaction score)),[9],1.24
same,binding signal (log2 enrichment (interaction score)),[10],1.56
same,binding signal (log2 enrichment (interaction score)),[11],-2.13
same,binding signal (log2 enrichment (interaction score)),[12],-2.26
same,binding signal (log2 enrichment (interaction score)),[13],-0.28
same,binding signal (log2 enrichment (interaction score)),[14],-1.95
same,binding signal (log2 enrichment (interaction score)),[15],-1.61
same,binding signal (log2 enrichment (interaction score)),[16],-6.58
same,binding signal (log2 enrichment (interaction score)),[17],0.72
same,binding signal (log2 enrichment (interaction score)),[18],-1.54
same,binding signal (log2 enrichment (interaction score)),[19],-2.06
same,binding signal (log2 enrichment (interaction score)),[20],0.31
same,binding signal (log2 enrichment (interaction score)),[21],0.21
same,binding signal (log2 enrichment (interaction score)),[22],-1.91
same,binding signal (log2 enrichment (interaction score)),[23],-1.77
same,binding signal (log2 enrichment (interaction score)),[24],-4.83
same,binding signal (log2 enrichment (interaction score)),[25],-3.38
same,binding signal (log2 enrichment (interaction score)),[26],-2.26
same,binding signal (log2 enrichment (interaction score)),[27],< -7.75
same,binding signal (log2 enrichment (interaction score)),[28],-5.19
same,binding signal (log2 enrichment (interaction score)),[29],-3.92
same,binding signal (log2 enrichment (interaction score)),[30],< -5.9
same,binding signal (log2 enrichment (interaction score)),[31],0.3

# Reformatted: entries from further up
sequence | measurement | setting | value
GGCUAGAACUAGUGGAUCCCCCGGCGCCCGGCGGCUCGAGCCCGGGUAAGUGUAUAUAGUCUGCAUGCCGCCGGGCGCCAUGCCUGCAGGUCGACUCUAGAAAACAUG | binding signal (log2 enrichment (interaction score)) | [17] | 0.72
same | binding signal (log2 enrichment (interaction score)) | [18] | -1.54

# From PMC8384837
